No constants are given. Whether binding was seen depends on the method and setting. In cells and extracts the contact can be indirect. Here binding means that the protein was enriched with, or labelled near, the bait; the list need not be complete. For some assays here: No binding means not detected with the bait. Blank lines part the entries; values can stand above or below the molecule they belong to.
Assays:
[1] = biological target: AKT2-NTag (AKT2 N-terminally fused with a TAP-Tag consisting of HA-Tag, StrepII-Tag and FLAG-Tag) (UniProt P31751); assay: affinity purification with mass spectrometry; SILAC-TAP: heavy (13C6 Lys/Arg) AKT2-NTag HEK293T cells and light wild type cells, lysates mixed 1:1 before (MBP) or eluates after (MAP) tandem affinity purification; in-solution digest, 2-D LC-MS/MS; two MAP and two MBP
[2] = biological target: AKT2-NTag (AKT2 N-terminally fused with a TAP-Tag consisting of HA-Tag, StrepII-Tag and FLAG-Tag) (UniProt P31751); assay: affinity purification with mass spectrometry; tandem affinity purification (anti-FLAG M2 gel, triple-FLAG peptide elution, then Strep-Tactin Sepharose, biotin elution) from lysates of HEK293T cells stably expressing AKT2-NTag; SDS-PAGE, silver staining, in-gel digest, nano-LC-MS/MS; six independent TAPs; wild type cells as control
[3] = biological target: AKT2-NTag (AKT2 N-terminally fused with a TAP-Tag consisting of HA-Tag, StrepII-Tag and FLAG-Tag) (UniProt P31751); assay: as above; remark: listed apart in the source

Amino acid sequences for entries named in this document (tags omitted). Residues count along the entry.
UniProt P31751: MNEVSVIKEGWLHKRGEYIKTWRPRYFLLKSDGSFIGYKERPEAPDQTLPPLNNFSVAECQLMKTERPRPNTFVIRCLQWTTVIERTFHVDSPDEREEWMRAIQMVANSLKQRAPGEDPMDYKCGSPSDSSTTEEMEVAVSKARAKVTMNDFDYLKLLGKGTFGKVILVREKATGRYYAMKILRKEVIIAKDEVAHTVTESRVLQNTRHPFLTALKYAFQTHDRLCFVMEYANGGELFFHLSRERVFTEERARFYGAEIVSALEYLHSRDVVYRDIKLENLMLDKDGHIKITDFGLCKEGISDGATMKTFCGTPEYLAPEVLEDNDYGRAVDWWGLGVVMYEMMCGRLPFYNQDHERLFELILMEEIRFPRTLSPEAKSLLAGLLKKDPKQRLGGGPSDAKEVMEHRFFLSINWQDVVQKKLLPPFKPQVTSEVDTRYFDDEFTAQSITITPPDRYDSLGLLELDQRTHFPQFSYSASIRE
UniProt P04406: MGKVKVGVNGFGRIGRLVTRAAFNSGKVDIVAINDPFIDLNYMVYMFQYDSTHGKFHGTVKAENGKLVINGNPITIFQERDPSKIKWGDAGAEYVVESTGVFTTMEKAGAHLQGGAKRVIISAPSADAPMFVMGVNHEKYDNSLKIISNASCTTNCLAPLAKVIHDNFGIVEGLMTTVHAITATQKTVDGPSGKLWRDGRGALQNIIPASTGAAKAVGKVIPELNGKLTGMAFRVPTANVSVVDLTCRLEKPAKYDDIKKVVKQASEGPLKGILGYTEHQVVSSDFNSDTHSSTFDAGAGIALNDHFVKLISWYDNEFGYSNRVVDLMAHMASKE
UniProt Q9BQA1: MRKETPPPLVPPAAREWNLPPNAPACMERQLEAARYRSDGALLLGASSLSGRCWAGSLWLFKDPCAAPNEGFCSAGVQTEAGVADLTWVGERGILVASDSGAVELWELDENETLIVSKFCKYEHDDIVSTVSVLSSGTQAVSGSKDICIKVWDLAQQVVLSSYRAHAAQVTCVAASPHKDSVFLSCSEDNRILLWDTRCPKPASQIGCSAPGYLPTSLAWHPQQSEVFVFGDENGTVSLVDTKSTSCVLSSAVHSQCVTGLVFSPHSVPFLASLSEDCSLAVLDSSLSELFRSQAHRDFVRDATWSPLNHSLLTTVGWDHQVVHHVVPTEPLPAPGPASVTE
UniProt Q58FF7: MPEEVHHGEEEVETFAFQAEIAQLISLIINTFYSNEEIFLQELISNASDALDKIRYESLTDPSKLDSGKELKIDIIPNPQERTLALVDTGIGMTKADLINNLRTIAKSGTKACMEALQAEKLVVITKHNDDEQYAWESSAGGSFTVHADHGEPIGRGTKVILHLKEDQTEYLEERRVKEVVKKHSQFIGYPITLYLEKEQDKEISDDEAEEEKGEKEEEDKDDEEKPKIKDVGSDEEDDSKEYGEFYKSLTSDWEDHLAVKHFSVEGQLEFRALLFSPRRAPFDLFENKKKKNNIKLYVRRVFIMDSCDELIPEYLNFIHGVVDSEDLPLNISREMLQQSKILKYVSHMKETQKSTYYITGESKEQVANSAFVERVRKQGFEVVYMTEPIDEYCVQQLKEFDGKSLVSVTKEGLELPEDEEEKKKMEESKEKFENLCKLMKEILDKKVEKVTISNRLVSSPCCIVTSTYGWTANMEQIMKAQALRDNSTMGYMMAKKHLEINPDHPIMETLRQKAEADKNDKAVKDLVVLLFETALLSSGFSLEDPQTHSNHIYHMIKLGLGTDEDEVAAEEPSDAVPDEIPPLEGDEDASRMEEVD
UniProt P11021, residues 19-654: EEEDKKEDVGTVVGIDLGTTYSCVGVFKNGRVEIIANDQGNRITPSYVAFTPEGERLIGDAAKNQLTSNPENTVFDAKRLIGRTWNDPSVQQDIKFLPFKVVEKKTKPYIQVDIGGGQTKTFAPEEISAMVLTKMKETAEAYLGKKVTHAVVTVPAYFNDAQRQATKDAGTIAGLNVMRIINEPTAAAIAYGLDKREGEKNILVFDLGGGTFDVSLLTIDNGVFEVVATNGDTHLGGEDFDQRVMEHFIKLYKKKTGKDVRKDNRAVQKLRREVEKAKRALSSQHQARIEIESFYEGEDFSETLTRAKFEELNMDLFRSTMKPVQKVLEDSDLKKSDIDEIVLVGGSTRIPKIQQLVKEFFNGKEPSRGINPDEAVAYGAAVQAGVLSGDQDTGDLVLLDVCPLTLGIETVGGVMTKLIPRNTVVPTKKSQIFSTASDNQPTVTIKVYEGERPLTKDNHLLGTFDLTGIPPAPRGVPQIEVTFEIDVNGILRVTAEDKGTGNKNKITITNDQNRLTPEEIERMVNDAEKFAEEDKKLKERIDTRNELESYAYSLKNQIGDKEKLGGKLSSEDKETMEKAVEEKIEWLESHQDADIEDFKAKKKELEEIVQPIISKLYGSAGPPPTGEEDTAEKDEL
UniProt P10809, residues 27-573: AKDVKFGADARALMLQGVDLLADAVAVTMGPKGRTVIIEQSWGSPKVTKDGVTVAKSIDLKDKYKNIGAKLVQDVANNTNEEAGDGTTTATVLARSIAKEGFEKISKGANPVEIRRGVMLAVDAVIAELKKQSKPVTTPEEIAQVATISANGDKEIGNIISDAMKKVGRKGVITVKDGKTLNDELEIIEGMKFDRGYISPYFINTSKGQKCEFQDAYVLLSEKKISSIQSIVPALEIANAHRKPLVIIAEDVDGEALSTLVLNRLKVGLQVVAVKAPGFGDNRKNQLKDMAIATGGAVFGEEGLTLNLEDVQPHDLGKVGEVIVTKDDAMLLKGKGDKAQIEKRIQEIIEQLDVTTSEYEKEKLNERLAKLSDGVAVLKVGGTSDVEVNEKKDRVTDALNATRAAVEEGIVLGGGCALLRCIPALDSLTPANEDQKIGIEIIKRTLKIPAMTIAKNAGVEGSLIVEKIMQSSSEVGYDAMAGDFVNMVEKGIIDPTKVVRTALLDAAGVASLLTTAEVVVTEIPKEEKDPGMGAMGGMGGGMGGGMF
UniProt P11142: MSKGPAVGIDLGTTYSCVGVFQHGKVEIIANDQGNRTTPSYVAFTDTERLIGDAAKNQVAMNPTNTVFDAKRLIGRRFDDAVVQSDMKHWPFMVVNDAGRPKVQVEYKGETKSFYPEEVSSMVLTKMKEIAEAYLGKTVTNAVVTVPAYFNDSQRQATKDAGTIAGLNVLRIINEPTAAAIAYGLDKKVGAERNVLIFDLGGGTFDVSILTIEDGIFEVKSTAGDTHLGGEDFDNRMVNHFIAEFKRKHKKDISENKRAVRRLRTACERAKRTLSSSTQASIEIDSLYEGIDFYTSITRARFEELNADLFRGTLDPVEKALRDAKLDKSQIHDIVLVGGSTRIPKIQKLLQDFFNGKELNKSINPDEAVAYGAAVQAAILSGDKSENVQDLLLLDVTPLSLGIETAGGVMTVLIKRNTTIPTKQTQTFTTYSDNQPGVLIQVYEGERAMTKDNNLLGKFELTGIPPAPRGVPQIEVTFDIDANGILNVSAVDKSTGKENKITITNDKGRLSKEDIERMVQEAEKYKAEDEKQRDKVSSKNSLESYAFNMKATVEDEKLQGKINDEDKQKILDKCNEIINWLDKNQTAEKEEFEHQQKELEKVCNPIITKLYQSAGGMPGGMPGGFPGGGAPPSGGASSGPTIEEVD
UniProt P14625, residues 22-803: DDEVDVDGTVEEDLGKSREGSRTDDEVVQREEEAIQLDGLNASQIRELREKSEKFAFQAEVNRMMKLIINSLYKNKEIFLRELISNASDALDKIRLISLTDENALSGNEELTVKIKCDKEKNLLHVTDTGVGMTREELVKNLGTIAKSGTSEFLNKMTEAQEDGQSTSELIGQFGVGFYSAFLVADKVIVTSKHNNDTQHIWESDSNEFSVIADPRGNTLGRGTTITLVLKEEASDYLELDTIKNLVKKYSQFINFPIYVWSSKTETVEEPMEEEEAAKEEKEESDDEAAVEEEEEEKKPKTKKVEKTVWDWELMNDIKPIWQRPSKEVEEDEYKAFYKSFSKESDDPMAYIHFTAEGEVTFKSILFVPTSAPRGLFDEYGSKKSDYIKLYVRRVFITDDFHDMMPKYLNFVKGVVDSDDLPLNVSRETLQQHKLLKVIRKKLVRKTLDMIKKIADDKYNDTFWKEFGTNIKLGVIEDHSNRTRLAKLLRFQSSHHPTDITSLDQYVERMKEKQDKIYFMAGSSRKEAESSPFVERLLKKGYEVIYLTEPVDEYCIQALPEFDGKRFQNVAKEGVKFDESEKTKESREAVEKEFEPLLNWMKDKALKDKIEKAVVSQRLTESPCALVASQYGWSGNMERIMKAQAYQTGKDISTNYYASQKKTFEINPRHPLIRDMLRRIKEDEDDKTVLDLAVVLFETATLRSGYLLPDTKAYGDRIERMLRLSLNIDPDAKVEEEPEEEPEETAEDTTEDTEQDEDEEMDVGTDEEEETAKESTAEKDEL
UniProt P0DMV8: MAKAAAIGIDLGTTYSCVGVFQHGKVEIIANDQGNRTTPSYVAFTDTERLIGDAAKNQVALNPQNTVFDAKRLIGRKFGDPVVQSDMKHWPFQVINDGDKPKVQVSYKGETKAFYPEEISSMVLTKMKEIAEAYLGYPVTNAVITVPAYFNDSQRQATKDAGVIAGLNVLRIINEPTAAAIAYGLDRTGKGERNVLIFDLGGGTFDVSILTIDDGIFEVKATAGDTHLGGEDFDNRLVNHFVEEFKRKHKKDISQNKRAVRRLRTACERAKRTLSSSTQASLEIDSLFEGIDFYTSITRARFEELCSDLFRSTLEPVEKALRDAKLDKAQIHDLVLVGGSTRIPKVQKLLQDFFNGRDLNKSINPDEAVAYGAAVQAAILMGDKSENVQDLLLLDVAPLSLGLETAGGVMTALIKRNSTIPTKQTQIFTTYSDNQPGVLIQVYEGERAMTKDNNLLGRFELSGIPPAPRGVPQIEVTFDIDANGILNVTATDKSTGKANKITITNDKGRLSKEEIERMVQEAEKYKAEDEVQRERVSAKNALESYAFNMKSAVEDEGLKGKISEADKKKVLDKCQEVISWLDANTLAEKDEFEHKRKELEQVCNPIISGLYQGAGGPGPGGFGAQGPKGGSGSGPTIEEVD
UniProt P54652: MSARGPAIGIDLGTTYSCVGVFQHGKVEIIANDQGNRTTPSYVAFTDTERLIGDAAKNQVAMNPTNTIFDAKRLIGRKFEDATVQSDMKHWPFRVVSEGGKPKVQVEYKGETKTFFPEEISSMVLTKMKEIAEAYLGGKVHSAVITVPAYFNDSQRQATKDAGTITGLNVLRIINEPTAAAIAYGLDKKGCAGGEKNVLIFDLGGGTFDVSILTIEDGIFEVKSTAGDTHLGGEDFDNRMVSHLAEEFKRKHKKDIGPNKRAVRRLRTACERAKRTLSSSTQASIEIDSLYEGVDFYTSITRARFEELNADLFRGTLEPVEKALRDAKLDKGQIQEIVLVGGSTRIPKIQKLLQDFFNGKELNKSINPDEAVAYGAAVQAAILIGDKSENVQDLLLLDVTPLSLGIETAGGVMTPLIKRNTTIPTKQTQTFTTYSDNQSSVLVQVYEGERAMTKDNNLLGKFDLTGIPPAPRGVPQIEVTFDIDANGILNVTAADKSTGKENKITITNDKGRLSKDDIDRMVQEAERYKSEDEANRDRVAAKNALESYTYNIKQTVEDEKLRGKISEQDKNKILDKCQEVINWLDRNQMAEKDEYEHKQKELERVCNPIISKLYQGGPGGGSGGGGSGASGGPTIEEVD
UniProt P06733: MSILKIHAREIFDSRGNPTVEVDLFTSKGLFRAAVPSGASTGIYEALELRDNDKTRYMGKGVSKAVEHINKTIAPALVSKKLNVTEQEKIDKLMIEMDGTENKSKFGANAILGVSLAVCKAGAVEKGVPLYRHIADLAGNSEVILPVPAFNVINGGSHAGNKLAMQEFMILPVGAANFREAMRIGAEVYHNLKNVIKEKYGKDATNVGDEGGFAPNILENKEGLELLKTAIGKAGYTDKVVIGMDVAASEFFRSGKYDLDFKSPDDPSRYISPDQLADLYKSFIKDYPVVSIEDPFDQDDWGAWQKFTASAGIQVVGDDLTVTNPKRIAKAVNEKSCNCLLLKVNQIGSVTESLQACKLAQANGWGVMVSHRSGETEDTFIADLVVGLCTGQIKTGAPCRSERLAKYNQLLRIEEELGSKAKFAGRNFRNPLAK
UniProt Q58FF8: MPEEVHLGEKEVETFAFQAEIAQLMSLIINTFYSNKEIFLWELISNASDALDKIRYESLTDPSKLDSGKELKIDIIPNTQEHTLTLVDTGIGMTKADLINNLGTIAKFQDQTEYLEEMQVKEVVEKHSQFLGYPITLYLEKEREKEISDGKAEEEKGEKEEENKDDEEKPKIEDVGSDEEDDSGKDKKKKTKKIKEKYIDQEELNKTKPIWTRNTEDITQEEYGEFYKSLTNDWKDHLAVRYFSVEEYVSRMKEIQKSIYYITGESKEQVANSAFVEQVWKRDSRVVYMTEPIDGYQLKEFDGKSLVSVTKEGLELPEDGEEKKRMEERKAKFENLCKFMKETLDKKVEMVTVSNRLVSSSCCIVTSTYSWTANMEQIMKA

Molecule: Heat shock protein HSP 90-alpha (from UniProt P07900 1-732)
binding [1]: binds

Molecule: Glyceraldehyde-3-phosphate-dehydrogenase (from UniProt P04406 1-335)
binding [2]: binds

Molecule: methylosome protein 50 (from UniProt Q9BQA1 1-342)
binding [1]: no binding

Molecule: Putative heat shock protein HSP 90-beta-3 (from UniProt Q58FF7 1-597)
binding [1]: binds

Molecule: 78 kDa glucose regulated protein (from UniProt P11021 19-654)
binding [1]: binds weakly | binding [2]: binds

Molecule: 60 kDa heat shock protein, mitochondrial (from UniProt P10809 27-573)
binding [1]: binds

Molecule: Stress 70 protein, mitochondrial (from UniProt P38646 47-679)
binding [1]: binds

Molecule: Heat shock cognate 71 kDa protein (from UniProt P11142 1-646)
binding [1]: binds

Molecule: Endoplasmin (from UniProt P14625 22-803)
binding [2]: binds

B1: Cdc37 (protein, UniProt Q16543 1-378)
chain: MVDYSVWDHIEVSDDEDETHPNIDTASLFRWRHQARVERMEQFQKEKEELDRGCRECKRKVAECQRKLKELEVAEGGKAELERLQAEAQQLRKEERSWEQKLEEMRKKEKSMPWNVDTLSKDGFSKSMVNTKPEKTEEDSEEVREQKHKTFVEKYEKQIKHFGMLRRWDDSQKYLSDNVHLVCEETANYLVIWCIDLEVEEKCALMEQVAHQTIVMQFILELAKSLKVDPRACFRQFFTKIKTADRQYMEGFNDELEAFKERVRGRAKLRIEKAMKEYEEEERKKRLGPGGLDPVEVYESLPEELQKCFDVKDVQMLQDAISKMDPTDAKYHMQRCIDSGLWVPNSKASEAKEGEEAGPGDPLLEAVPKTGDEKDVSV
binding [1]: binds | binding [3]: binds

The next lines start with the values.

binding [1]: binds
Molecule: Heat shock 70 kDa protein 1 (from UniProt P0DMV8 1-641)

binding [1]: binds
Molecule: Heat shock 70 kDa protein 1L (from UniProt P34931 1-641)

binding [1]: binds
Molecule: Heat shock-related 70 kDa protein 2 (from UniProt P54652 1-639)

binding [2]: binds
Molecule: α-enolase (from UniProt P06733 1-434)

binding [1]: binds
Molecule: Putative heat shock protein HSP 90-beta 2 (from UniProt Q58FF8 1-381)

From publication PMC3688836
